Measured values reported in PubChem BioAssay AID624297 (National Center for Advancing Translational Sciences (NCATS), 2012).
Hit rate of the full screen: of about 340,000 compounds, about 6,200 (1.8%) were called active. Inconclusive results, whose numbers are uncertain, are shown with a selection of clear calls. Calls come from the whole dose curve; as a rule, active = well fitted activation curve with a large enough effect; inconclusive = small, poorly fitted or top-dose-only effect; inactive = no such curve, though single readings can be large or run the other way. Where the call is inconclusive, the potency comes from a doubtful curve fit.

assay: A quantitative high throughput screen for small molecules that induce DNA re-replication in SW480 colon adenocarcinoma cells.; note: nearly all actives have a fitted effect of over 55% in size; for re-replication activation: % of control where 0% means no effect; settings: Hoechst DNA content imaging, 48 h; re-replication activation: at 46.1 µM (top of the series)
How it was run: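 First, 250 cells per well were seeded. Next, compound or vehicle (23 nL) was pinned in, plates sat 48 hr at 37 C. Finally Hoechst was added for 40 min before fluorescence scanning.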
Potency is the fitted concentration of half-maximal effect.

Compound	Potency	re-replication activation
COc1ccc(OC)c([C@@H](O)[C@H](C)NC(C)(C)C)c1	inconclusive: 28.2 µM [activator, single point]	
C/C(=N\NC(=O)c1ccccc1Cl)c1c(O)n(C2CCCCC2)c(=O)[nH]c1=O	inconclusive: 6.51 µM [activator, single point]	
COc1cc(CC2C(=O)N(C)C(=O)N(C)C2=O)ccc1OCc1ccccc1	inconclusive: 29.1 µM [activator, single point]	
CCC1C(c2cc(OC)c(OC)c(OC)c2)c2cc3c(cc2OC1N1CCCC1)OCO3 (configuration not stated)	active: 8.2 µM	
Cc1cc(NC(=O)COC(=O)c2c(C)nn(Cc3ccccc3Cl)c2C)no1	inconclusive: 7.31 µM [activator, partial curve, poor fit]	
CCOC(=O)c1c(C)[nH]c(C)c1C(=O)C(Cc1ccccc1)N(C)C (configuration not stated)	inconclusive: 5.8 µM [activator, partial curve, poor fit]	
O=C1OC(c2ccc([N+](=O)[O-])cc2)=N/C1=C/N1CC2CC(C1)c1cccc(=O)n1C2 (configuration not stated)		inactive: -4.23%
CCCCOC(=O)n1c(=O)oc2ccccc21	inconclusive: 20.6 µM [activator, single point]	
CCNC(=S)NCCC1=c2ccccc2=N/C1=C\c1c(O)n(C)c(=O)n(C)c1=O	inconclusive: 23.1 µM [activator, single point]	
COc1cc(/C=N/NC(=O)CN2CCCCC2)ccc1OCc1ccccc1	inconclusive: 29.1 µM [activator, partial curve, poor fit]	
C/C(=N\Nc1cccc2ccccc12)c1c(O)n(Cc2ccccc2)c(=O)[nH]c1=O	inconclusive: 0.0291 µM [activator, full curve, poor fit]	
O=C1NC(=O)N(c2ccc(Cl)cc2)C(=O)/C1=C/c1coc2ccc(O)cc2c1=O	inconclusive: 29.1 µM [activator, single point]	
CN1CCN(c2cc(N3CCCCCC3)c(F)cc2[N+](=O)[O-])CC1	inconclusive: 29.1 µM [activator, single point]	
Cc1cc(C=O)c(C)n1C(C)C		inconclusive: 46.1% [activator]
Cc1ccc(/C=C2\C(=O)NC(=S)N(c3ccc(F)cc3)C2=O)s1		inactive: 10.3%
Fc1ccc(CCNCc2ccc(Cl)c(Cl)c2)cc1	inconclusive: 32.6 µM [activator, partial curve, poor fit]	
CCN(CC)C(=O)c1ccc(NC(=O)COc2ccc([N+](=O)[O-])cc2Cl)cc1	inconclusive: 6.51 µM [activator, single point]	
CSc1ccccc1C(=O)C1CCCN(Cc2cccc(C)n2)C1 (configuration not stated)	inconclusive: 25.9 µM [activator, partial curve, poor fit]	
COc1ccc2c(c1)CC1(CN2C)C(=O)NC(=O)N(c2ccc(F)cc2)C1=O (configuration not stated)		inactive: 3.24%
CCOC(=O)Cn1c(-c2ccccc2)ccc(C#N)c1=O	inconclusive: 7.31 µM [activator, partial curve, poor fit]	
CN1CCN(c2ccc([N+](=O)[O-])c(NCC3CCCO3)c2)CC1 (configuration not stated)	inconclusive: 29.1 µM [activator, single point]	

A draw from above in order of length of the SMILES, rising.
Compound	Potency	re-replication activation
COc1cc(/C=N/NC(=O)CN2CCCCC2)ccc1OCc1ccccc1	inconclusive: 29.1 µM [activator, partial curve, poor fit]	
CCC1C(c2cc(OC)c(OC)c(OC)c2)c2cc3c(cc2OC1N1CCCC1)OCO3 (configuration not stated)	active: 8.2 µM	
CCN(CC)C(=O)c1ccc(NC(=O)COc2ccc([N+](=O)[O-])cc2Cl)cc1	inconclusive: 6.51 µM [activator, single point]	
O=C1NC(=O)N(c2ccc(Cl)cc2)C(=O)/C1=C/c1coc2ccc(O)cc2c1=O	inconclusive: 29.1 µM [activator, single point]	

Following part.

Compound	Potency	re-replication activation
CCCCOP(=O)(c1ccc(N(C)C)cc1)C(Nc1ccccc1)c1ccccc1 (configuration not stated)	inconclusive: 20.6 µM [activator, single point]	
O=C(CNC(=O)c1ccc(Cl)cc1)Nc1ccc(Br)cc1C(=O)c1ccccc1	inconclusive: 29.1 µM [activator, single point]	
Nc1c(Cl)cc([N+](=O)[O-])cc1Cl		inactive: -1.67%
Cn1c(O)c(/C=C2\N=c3ccccc3=C2CCNC(=S)NC2CC2)c(=O)n(C)c1=O	inconclusive: 29.1 µM [activator, single point]	
Cc1ccc(-c2nn3c(C)nnc3c3ccccc23)cc1S(=O)(=O)NCCO	inconclusive: 29.1 µM [activator, single point]	
Clc1ccccc1CN1CCN(c2ccccc2)CC1	inconclusive: 20.6 µM [activator, single point]	
CC(C)(C)n1cc(C(=O)c2ccc3ccccc3c2O)cn1		inactive: -7.94%
BrCC(Br)C1CCC(Br)C(Br)C1 (configuration not stated)	inconclusive: 18.4 µM [activator, single point]	
COC(=O)c1ccc(C(C(=O)NC2CCCCC2)N(CCN2CCOCC2)C(=O)Cc2cccs2)cc1 (configuration not stated)	inconclusive: 29.1 µM [activator, single point]	
COc1ccc(CCN(C)Cc2ccc(F)cc2F)cc1OC		inactive: -2.06%
CC1CCN(CC(=O)c2ccccc2Cl)CC1		inactive: 17.3%
Cc1ccsc1C(=O)C1CCCN(Cc2ccccc2O)C1 (configuration not stated)	inconclusive: 6.51 µM [activator, single point]	
CC(C)N1C(=S)SC(C)(C)C1n1oc(=O)n(-c2cccc(Cl)c2)c1=O (configuration not stated)		inactive: -2.37%
O=C(O)C1Cc2ccccc2N2CCCC12 (configuration not stated)	inconclusive: 16.4 µM [activator, partial curve, poor fit]	
CCOC(=O)c1c(C=O)c2ccccc2n1Cc1ccccc1	inconclusive: 8.2 µM [activator, partial curve]	
COc1cccc(N2C(=O)NC(=O)/C(=C/c3ccc([N+](=O)[O-])s3)C2=O)c1	inconclusive: 29.1 µM [activator, single point]	
CCOC(=O)c1c(C)n(Cc2ccc(F)cc2)c2ccc(O)cc12	inconclusive: 0.82 µM [activator, full curve, poor fit]	
CCNC[C@H](O)c1cccc(O)c1		inactive: -5.95% [at 20.6 µM]
Cc1[nH]c2ccccc2c1C(=O)CN1CC=C(c2ccccc2)CC1	inconclusive: 29.1 µM [activator, single point]	
O=C1/C(=C/c2ccccc2)C[C@@]2(O)[C@H]3Cc4ccc(O)c5c4[C@@]2(CCN3CC2CC2)C1O5 (some centres not stated)	inconclusive: 4.11 µM [activator, full curve, poor fit]	
COc1ccc(-c2coc3cc(OC(=O)N4CCOCC4)ccc3c2=O)cc1	inconclusive: 0.103 µM [activator, full curve, poor fit]	
